# Measurements reported in PubChem BioAssay AID743454 (Peter MacCallum Cancer Centre, 2014)
# Assay: 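Genes whose loss kills vorinostat-resistant colon cancer cells under vorinostat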 (primary screen)
# Cell system: human HCT116-VR colon cancer cells, selected for vorinostat resistance
# Reagent: siRNA pool against human genes, 40 nM siRNA pool
# Time to read-out: vorinostat for 24 h, read-out about 72 h after transfection
# Treatment: vorinostat at 2.5 µM final
# Measurement: 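Cell viability by CellTiter-Fluor and caspase 3/7 activity by luminescence, each scaled to mock wells per plate, duplicates averaged, then robust z-scored over all plates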
# Scale: viability robust z-score: higher = more viable cells than screen typical; caspase robust z-score: higher = more caspase 3/7 activity than screen typical
# Rule for the call: 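a knock-down is a hit when classed RV1 or RV2 for lowered viability, or CA1 or CA2 for caspase activation; those lethal without drug were dropped; hits were retested singly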
# This is an unselected part of about 18,000 reagents tested. In the full data, 450 (2.5%) are marked active. 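Single biological run; no consistent viability z cut-off exists, so the class columns, not z-scores, define the calls.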 Unmarked entries are inactive. No sequences are given here.
Target gene,viability hit class,caspase hit class,viability robust z-score,caspase robust z-score
CYB5B,no change,no change,0.52,0.06
KRT7,no change,no change,-0.54,-0.8
FAM241B,no change,no change,0.06,0.55
SLC38A5,no change,no change,0.42,-0.18
H2BC11,no change,no change,0.25,-0.24
COPE,no change,no change,-0.01,-0.1
AVP,RV2 (reduced viability) (active),no change,-2.94,-1.45
MEGF10,no change,no change,0.65,-0.29
ANKH,no change,no change,-1.92,-0.22
FCGR1A,no change,no change,0.2,-0.44
SEC61A1,no change,no change,-1.96,1.55
STARD7-AS1,no change,no change,0.58,0.29
SRPRA,no change,no change,-0.49,0.9
IFNLR1,no change,no change,-0.98,0.88
NRN1L,no change,no change,0.01,0.13
CATSPER1,no change,no change,0.43,1.82
ZNF385D,no change,no change,0.1,-1.12
GTF2E1,no change,no change,-1.62,3.34
AAMDC,no change,no change,-1.98,-0.02
GLIS3,no change,no change,-2.19,2.61
ODAPH,no change,no change,0.7,-0.93
PLA2G12B,no change,no change,-1.27,2.88
FAHD1,no change,no change,0.57,-1.48
ITGB7,no change,no change,-0.1,-0.6
OXNAD1,no change,no change,0.74,-1.23
ESRRB,no change,no change,-0.31,-0.69
ALPK2,no change,no change,-1.14,-0.36
VTI1B,no change,no change,1.06,-0.97
PPM1F,no change,no change,0.45,-0.66
PCYT2,no change,no change,1.12,-0.22
CCDC125,no change,no change,-0.12,-0.42
APOBEC3H,no change,no change,0.34,1.86
S100A7P3,no change,no change,0,-0.06
TPST1,no change,no change,-0.37,-0.04
CCDC88A,RV2 (reduced viability) (active),no change,-3.28,0.2
NFKBIA,no change,no change,0.19,0.29
CD1E,no change,no change,0.61,0.12
SUSD2,no change,no change,-1.15,0.3
ECE2,no change,no change,-0.7,-0.07
PIKFYVE,no change,no change,-0.07,-0.45
TP53I3,no change,no change,-1.63,0.28
TRAF2,no change,no change,-2.31,-0.07
SAGE1,no change,no change,0.25,0
TFDP2,no change,no change,2.03,-0.65
OR8G5,no change,no change,0.34,0.31
PLIN5,no change,no change,-0.12,0.42
RPGR,no change,no change,-0.24,-0.6
LONP1,no change,no change,0.81,-0.47
SNAPC5,no change,no change,1.08,-0.23
HMGB2,no change,no change,-0.72,2.52
HINT1,no change,no change,-0.11,-0.49
JUNB,no change,no change,1.51,-0.24
TRIM60,no change,no change,0.72,-0.54
IRS2,no change,no change,-0.03,-0.44
ETFBKMT,no change,no change,0.15,-0.34
PRDM9,no change,no change,-0.85,0.82
ROM1,no change,no change,-0.34,-0.34

Individual results from the list.
Entry for PPM1F in “caspase hit class”: no change
Under “viability robust z-score”, SNAPC5 has 1.08
Result of OR8G5 under “caspase robust z-score”: 0.31
